Experimental data taken from publication PMC8816382.
Results are given in words; binding and its absence hold for the method and conditions named. Binding seen in cells or lysates may run through a third protein. Some entries that bind do so weakly or less than the wild type.

Amino acid sequences for entries named in this document (tags omitted).
UniProt Q8N668: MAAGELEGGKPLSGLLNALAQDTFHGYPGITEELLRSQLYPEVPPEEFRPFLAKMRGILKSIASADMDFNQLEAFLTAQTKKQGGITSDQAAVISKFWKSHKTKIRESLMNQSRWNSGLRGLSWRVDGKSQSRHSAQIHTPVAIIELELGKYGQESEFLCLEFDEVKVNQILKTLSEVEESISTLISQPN
UniProt Q567U6: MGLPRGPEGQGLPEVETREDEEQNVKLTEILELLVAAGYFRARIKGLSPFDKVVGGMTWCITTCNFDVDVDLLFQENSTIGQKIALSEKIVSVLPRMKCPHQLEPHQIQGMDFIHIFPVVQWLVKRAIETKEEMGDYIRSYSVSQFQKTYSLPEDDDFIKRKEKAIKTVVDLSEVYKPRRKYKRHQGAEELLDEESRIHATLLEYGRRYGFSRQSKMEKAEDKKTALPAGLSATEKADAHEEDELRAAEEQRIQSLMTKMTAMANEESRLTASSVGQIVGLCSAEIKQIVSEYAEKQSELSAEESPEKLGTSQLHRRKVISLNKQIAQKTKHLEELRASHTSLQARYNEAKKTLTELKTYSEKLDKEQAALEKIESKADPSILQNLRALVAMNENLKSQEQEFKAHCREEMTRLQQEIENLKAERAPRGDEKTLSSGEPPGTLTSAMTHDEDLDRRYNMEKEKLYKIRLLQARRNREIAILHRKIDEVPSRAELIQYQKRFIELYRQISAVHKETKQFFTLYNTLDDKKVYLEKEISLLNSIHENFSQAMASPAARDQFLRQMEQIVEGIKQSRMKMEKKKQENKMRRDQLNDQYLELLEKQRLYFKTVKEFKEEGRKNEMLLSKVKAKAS

Target: 3xHA-COMMD1 (UniProt Q8N668)
Experiment: co-IP; HeLa lysates (Pierce IP lysis buffer with protease and phosphatase inhibitors) incubated with goat anti-HA antibody agarose beads overnight at 4°C; precipitates immunoblotted for CCDC93 and HA; co-precipitated CCDC93 normalised to the COMMD1 pulled down, three experiments

- binding: binds
Substance: CCDC93 (coiled-coil domain containing 93) (from UniProt Q567U6 1-631)
